Values from PubChem BioAssay AID1259308 (NCATS, 2017).
Assay: 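Genes whose loss raises luciferase production in HEK293 cells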 (primary screen). Cells: human HEK293 embryonic kidney cells stably expressing firefly luciferase (HEK-CMV-Luc2-Hygro). Reagents: single siRNA against human genes, 0.8 pmol siRNA per well. Duration: 72 h. Measurement: 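Luciferase light (ONE-Glo) measured on one replicate plate set and viability (CellTiter-Glo) on the other, scaled to a negative control siRNA, with robust z-scores and luciferase per cell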. Direction: total luciferase, z-score: higher = more reporter protein produced. Hit rule: 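An siRNA counts as active if its total luciferase robust z-score exceeds 3; genes with two or more such siRNAs out of three were retested with fresh siRNAs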. Meaning of the calls: active = raised luciferase; inactive = no rise.
The deposit covers about 59,000 reagents; shown is an unselected part. In the full data, about 1,510 (2.6%) are marked active. 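Calls use total luciferase alone and ignore viability, so some active siRNAs may act by altering cell number.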 The numbers tell different reagents against one gene apart. Further read-outs or replicates are left out here.

Against ABI2 (abl interactor 2) #1 the deposit lists total luciferase, z-score -0.0801; inactive.
Depletion of ABI2 (abl interactor 2) #2 resulted in: total luciferase, z-score 0.34; inactive.
For ABI2 (abl interactor 2) #3, the entry reads total luciferase, z-score -0.105; inactive.
For FOXR2 (forkhead box R2) #1, the entry reads total luciferase, z-score -1.1; inactive.
FOXR2 (forkhead box R2) #2 gave total luciferase, z-score 0.682; inactive.
After knock-down of FOXR2 (forkhead box R2) #3, the screen gave total luciferase, z-score 0.44; inactive.
Against ARMC9 (armadillo repeat containing 9) #1, the entry reads total luciferase, z-score 2.64; inactive.
ARMC9 (armadillo repeat containing 9) #2 showed total luciferase, z-score -1.36; inactive.
Depletion of ARMC9 (armadillo repeat containing 9) #3 came out at: total luciferase, z-score 0.779; inactive.
UBE2G1 (ubiquitin conjugating enzyme E2 G1) #1 scored total luciferase, z-score 1.49; inactive.
UBE2G1 (ubiquitin conjugating enzyme E2 G1) #2 gave total luciferase, z-score 0.146; inactive.
Silencing of UBE2G1 (ubiquitin conjugating enzyme E2 G1) #3 gave: total luciferase, z-score -0.59; inactive.
For ICAM3 (intercellular adhesion molecule 3) #1, the values are total luciferase, z-score 0.677; inactive.
With knock-down of ICAM3 (intercellular adhesion molecule 3) #2, the screen gave total luciferase, z-score 0.5; inactive.
Depletion of ICAM3 (intercellular adhesion molecule 3) #3 gave: total luciferase, z-score 1.23; inactive.
Knock-down of DAPK1 (death associated protein kinase 1) #1 resulted in: total luciferase, z-score -1.83; inactive.
With knock-down of DAPK1 (death associated protein kinase 1) #2 the results were total luciferase, z-score 1.85; inactive.
Depletion of DAPK1 (death associated protein kinase 1) #3 came out at: total luciferase, z-score -0.347; inactive.
Knock-down of ZFYVE19 (zinc finger FYVE-type containing 19) #1 came out at: total luciferase, z-score -0.293; inactive.
With knock-down of ZFYVE19 (zinc finger FYVE-type containing 19) #2, the record shows total luciferase, z-score 2.28; inactive.
ZFYVE19 (zinc finger FYVE-type containing 19) #3 gave total luciferase, z-score 1.32; inactive.

3 entries already listed, arranged by “total luciferase, z-score”, low to high.
DAPK1 (death associated protein kinase 1) #1 — total luciferase, z-score: -1.83; activity call: inactive
ICAM3 (intercellular adhesion molecule 3) #2 — total luciferase, z-score: 0.5; activity call: inactive
ICAM3 (intercellular adhesion molecule 3) #3 — total luciferase, z-score: 1.23; activity call: inactive
